# Measured values published in publication PMC7718877.
# Chains of the proteins cited; added tags and fusions are not shown. Residues count along the entry.
# UniProt P19809, residues 555-753: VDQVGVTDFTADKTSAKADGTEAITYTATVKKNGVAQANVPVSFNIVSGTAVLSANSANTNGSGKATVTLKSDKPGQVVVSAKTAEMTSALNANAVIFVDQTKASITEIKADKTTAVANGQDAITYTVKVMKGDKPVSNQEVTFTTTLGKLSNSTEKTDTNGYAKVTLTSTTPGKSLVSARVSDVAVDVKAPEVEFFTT
# No constants are given. Whether binding was seen depends on the method and setting.
# Tests used:
# [1] = target: intimin subdomains D0–D1 (enteropathogenic Escherichia coli (EPEC) strain E2348/69) (UniProt P19809); assay: SAXS; concentration series in 10 mM HEPES-NaOH pH 7.5, 100 mM KCl; protein concentrated to ca. 28 mg/ml; OLIGOMER analysis with monomer models and crystal dimers for D00–D0; both purified
# [2] = target: intimin subdomains D0–D1 (enteropathogenic Escherichia coli (EPEC) strain E2348/69) (UniProt P19809); assay: SEC-MALS; Superdex 75 10/300, 10 mM HEPES-NaOH pH 7.5, 100 mM KCl, different protein concentrations, 50 µl injected at 0.4 ml/min; both purified
substance,measurement,setting,value
intimin subdomains D0–D1 (from UniProt P19809 555-753) (domain or fragment),binding,[1],no binding
same,binding,[2],no binding
